Drawing on publication PMC10329790, this text covers binding for one molecule.

Amino acid sequences for entries named in this document (tags omitted).
UniProt Q15672: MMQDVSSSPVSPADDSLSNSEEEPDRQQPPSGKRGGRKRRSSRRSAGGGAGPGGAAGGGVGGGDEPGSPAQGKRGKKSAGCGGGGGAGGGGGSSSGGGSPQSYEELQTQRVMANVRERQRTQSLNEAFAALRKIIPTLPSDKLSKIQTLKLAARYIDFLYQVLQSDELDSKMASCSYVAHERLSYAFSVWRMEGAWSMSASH

Results are given in words; binding and its absence hold for the method and conditions named. Binding seen in cells or lysates may run through a third protein. Some entries that bind do so weakly or less than the wild type.

For this assay, the target named is TWIST1 (UniProt Q15672). Put plainly: co-IP; HCC827 cells transfected with HA-USP51, Flag-TWIST1 and/or His-ubiquitin plasmids for 24 h, in the presence of MG132; anti-Flag antibody on protein A/G beads, lysate incubated 4 °C 6 h; buffer 150 mmol/L NaCl, 50 mmol/L Tris-HCl pH 7.4; Western blotting. On the technique in general: A western blot detects proteins with antibodies after separation by electrophoresis.

B1: USP51 (enzyme, UniProt Q70EK9 1-711)
chain: MAQVRETSLPSGSGVRWISGGGGGASPEEAVEKAGKMEEAAAGATKASSRREAEEMKLEPLQEREPAPEENLTWSSSGGDEKVLPSIPLRCHSSSSPVCPRRKPRPRPQPRARSRSQPGLSAPPPPPARPPPPPPPPPPPAPRPRAWRGSRRRSRPGSRPQTRRSCSGDLDGSGDPGGLGDWLLEVEFGQGPTGCSHVESFKVGKNWQKNLRLIYQRFVWSGTPETRKRKAKSCICHVCSTHMNRLHSCLSCVFFGCFTEKHIHKHAETKQHHLAVDLYHGVIYCFMCKDYVYDKDIEQIAKETKEKILRLLTSTSTDVSHQQFMTSGFEDKQSTCETKEQEPKLVKPKKKRRKKSVYTVGLRGLINLGNTCFMNCIVQALTHIPLLKDFFLSDKHKCIMTSPSLCLVCEMSSLFHAMYSGSRTPHIPYKLLHLIWIHAEHLAGYRQQDAHEFLIAILDVLHRHSKDDSGGQEANNPNCCNCIIDQIFTGGLQSDVTCQACHSVSTTIDPCWDISLDLPGSCATFDSQNPERADSTVSRDDHIPGIPSLTDCLQWFTRPEHLGSSAKIKCNSCQSYQESTKQLTMKKLPIVACFHLKRFEHVGKQRRKINTFISFPLELDMTPFLASTKESRMKEGQPPTDCVPNENKYSLFAVINHHGTLESGHYTSFIRQQKDQWFSCDDAIITKATIEDLLYSEGYLLFYHKQGLEKD
As for B1, the binding entry was “binds”.
